This assay deals with Aurora A_(D274N) kinase domain (human) (UniProt O14965). Description: AUC; sedimentation velocity, absorbance at 280 nm, 50 000 rpm, 20°C, 20 mM HEPES pH 7.5, 500 mM NaCl; single proteins and mixtures (5 μM each CK2α and RAD-CK2β; 10 μM each Aurora A D274N and RAD-TPX2); both purified.

These are yes or no findings as the source states them, for the method shown.

B1: Aurora A_(D274N) kinase domain (domain or fragment, UniProt O14965 122-403)
chain: ESKKRQWALEDFEIGRPLGKGKFGNVYLAREKQSKFILALKVLFKAQLEKAGVEHQLRREVEIQSHLRHPNILRLYGYFHDATRVYLILEYAPLGTVYRELQKLSKFDEQRTATYITELANALSYCHSKRVIHRDIKPENLLLGSAGELKIANFGWSVHAPSSRRTTLCGTLDYLPPEMIEGRMHDEKVDLWSLGVLCYEFLVGKPPFEANTYQETYKRISRVEFTFPDFVTEGARDLISRLLKHNPSQRPMLREVLEHPWITANSSKPSNCQNKESASKQS
For B1, the binding result was “no binding (tested: 10 μM)”.

The values above are taken from publication PMC5897841, “Development of a multipurpose scaffold for the display of peptide loops” (Protein Engineering, Design and Selection, 2017).
